The other results are listed elsewhere or left out.

In the assay the target is T1, OsSMF1 (Oryza sativa, UniProt Q6ZLB0 1-436).
T1 sequence: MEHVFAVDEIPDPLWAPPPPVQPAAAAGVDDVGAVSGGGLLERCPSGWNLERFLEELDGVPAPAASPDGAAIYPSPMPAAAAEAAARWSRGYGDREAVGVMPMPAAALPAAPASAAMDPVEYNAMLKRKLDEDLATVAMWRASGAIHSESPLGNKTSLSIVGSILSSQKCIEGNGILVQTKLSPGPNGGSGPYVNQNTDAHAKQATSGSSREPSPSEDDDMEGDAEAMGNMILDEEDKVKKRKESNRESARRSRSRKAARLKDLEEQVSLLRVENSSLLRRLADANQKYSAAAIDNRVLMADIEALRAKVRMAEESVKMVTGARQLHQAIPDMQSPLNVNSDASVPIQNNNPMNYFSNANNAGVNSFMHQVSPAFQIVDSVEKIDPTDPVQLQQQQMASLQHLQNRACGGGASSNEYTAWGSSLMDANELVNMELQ
The assay is described as follows: protein-binding microarray (RPBM); PBS, 2% BSA, 51.3 ng/ul salmon testes DNA, 50 uM zinc acetate, 200 nM TF, 25 C, 1 h; high values mean tight binding. The following applies: protein: recombinant; tags: N-terminal polyhistidine and DsRed monomer fusion (pET32a); chain copies: 2; label: CyDye5-dUTP incorporated in the synthesized complementary strand; 3' TTTTT single-stranded linker to array surface; dsDNA, one strand shown. The gist of the method:
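An Axon 4000B scanner gave the binding signal as per-feature fluorescence intensity in arbitrary units. This followed washing of a custom Agilent array that had been incubated for 1 h at 25 °C with 200 nM protein in PBS, 2% BSA, salmon testes DNA and 50 µM zinc acetate. The proteins were transcription factors fused at the N-terminus to polyhistidine and DsRed, expressed in E. coli BL21-CodonPlus and purified on Ni–NTA.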
Regarding “GAATGAAAATTGAGGTCAGCAATGAGCGATGTGTATCCCCCGGAGTCACCTAGTGCAG”, the binding signal was 3360 fluorescence intensity (a.u.).

Regarding “TCCTCAAGATATCTCCACGTATAACTAATCTTGCATATCCCGGAGTCACCTAGTGCAG”, the binding signal is 6440 fluorescence intensity (a.u.).

As for “TCCCACATTAAATTTACTCATTAGTTGTTAGGAATCGACACGGAGTCACCTAGTGCAG”, the binding signal was 20600 fluorescence intensity (a.u.).

For the sequence “CTCCCGCTCTTTAAAACTGCCACCTCCGTTAACGCCACCACGGAGTCACCTAGTGCAG”, the binding signal was 4250 fluorescence intensity (a.u.).

Consider “TGTACGCCAAGCGCGCGTTCGTGCACTGGTACGTGGGCGACGGAGTCACCTAGTGCAG”, for which the binding signal was 3490 fluorescence intensity (a.u.).

On to “AATCTTTTAAATCTAATTAGTCCATGATTAGTCATAAGCGCGGAGTCACCTAGTGCAG”, for which the binding signal was 3640 fluorescence intensity (a.u.).

For the sequence “GAGTTGTTGTGTCTGACGTAAGCACTGAAGTGGATATGATCGGAGTCACCTAGTGCAG”, the binding signal was 10600 fluorescence intensity (a.u.).

As for “GCGGTGGATAGGAGGGCCGAGGGCCGATGACTTGGACACGCGGAGTCACCTAGTGCAG”, the binding signal was 4350 fluorescence intensity (a.u.).

As to “TGCAAACTTCGAAACTCCAAATACCGCGCCACGCGGCAGCCGGAGTCACCTAGTGCAG”, the binding signal was 8400 fluorescence intensity (a.u.).

As for “CTAAACATGATATCACCAACTTCATCCTACCAAAATTTGGCGGAGTCACCTAGTGCAG”, the binding signal was 3950 fluorescence intensity (a.u.).

Turning to “AGATGCGGCGCGGAGGTTGCGTGGCGGCACTGGTGCTAGCCGGAGTCACCTAGTGCAG”, the binding signal is 4160 fluorescence intensity (a.u.).

Regarding “CCATCCTGCCAGGACGCAGAAGCGCAGGGTCGAGCCTCTCCGGAGTCACCTAGTGCAG”, the binding signal is 3340 fluorescence intensity (a.u.).

For “AAGTAGCATCACCTTTCAGTAATGTTGTCTCCACTCAGCACGGAGTCACCTAGTGCAG”, the binding signal is 4840 fluorescence intensity (a.u.).

Take “CATTGCGCGCTAAAGGAGCACGTCACCTACACTAATCATTCGGAGTCACCTAGTGCAG”: the binding signal was 3780 fluorescence intensity (a.u.).

Consider “AATGCACTATTCATACTATAGCAAAATCCGACGTGGCACTCGGAGTCACCTAGTGCAG”, for which the binding signal is 22800 fluorescence intensity (a.u.).

Consider “CCCAACTGTTCTTTCCGTCACGTCACGCACAAGTCAAAATCGGAGTCACCTAGTGCAG”, for which the binding signal is 5230 fluorescence intensity (a.u.).

Take “GGCACTATAGATGTTTGGTTTCGCTGACGTGGCATTCTAGCGGAGTCACCTAGTGCAG”: the binding signal was 49000 fluorescence intensity (a.u.).

In the case of “CTACAACACTAGACTACGGGGAGCACGAGCTACACGACTGCGGAGTCACCTAGTGCAG”, the binding signal was 5030 fluorescence intensity (a.u.).

On to “TGCCAGGGTGAATACGTGTTGTTTATTGGCTAGCTAATAACGGAGTCACCTAGTGCAG”, for which the binding signal was 3400 fluorescence intensity (a.u.).

As for “CTCTTTTCCCCATCTCACATACTGTGCCTTGCCTCCATAACGGAGTCACCTAGTGCAG”, the binding signal was 65200 fluorescence intensity (a.u.).

Take “AGGTCCCGCGACACCGGCGTGTGGCCGCTCGCCGTCTGATCGGAGTCACCTAGTGCAG”: the binding signal is 12500 fluorescence intensity (a.u.).

With “AACTACAAACCACGTCGATGGCAATACAAGACCGGTGTTCCGGAGTCACCTAGTGCAG”, the binding signal was 4340 fluorescence intensity (a.u.).

With “GCATGCATCCGTCAGCACGCAGCATGCTGCTCCCGTATTACGGAGTCACCTAGTGCAG”, the binding signal is 4990 fluorescence intensity (a.u.).

As to “TTCAACGGCATGATATCGATCTAGGGGAGATGATGTCAAACGGAGTCACCTAGTGCAG”, the binding signal was 31500 fluorescence intensity (a.u.).

Take “TCTCTGCTCTCGCACAGGCGGCGGCGTGCGTGGCCGGAGGCGGAGTCACCTAGTGCAG”: the binding signal was 3470 fluorescence intensity (a.u.).

On to “TGTATGTATTAACTGCCGGTGGCCACCGTGGCCGGCCGTGCGGAGTCACCTAGTGCAG”, for which the binding signal is 3820 fluorescence intensity (a.u.).

In the case of “GGATTAAACTTATTGATGACATACCGGTGGAGTCAATGGACGGAGTCACCTAGTGCAG”, the binding signal was 5070 fluorescence intensity (a.u.).

With “GAAGATGACGACGAGTGAGACTGTGCTGGGGTTCATACGTCGGAGTCACCTAGTGCAG”, the binding signal was 3660 fluorescence intensity (a.u.).

As to “GATTGAAACATCAAGGACTAAACTGAGTCTCAGATGAAACCGGAGTCACCTAGTGCAG”, the binding signal is 58100 fluorescence intensity (a.u.).

For the sequence “TATGTGAATAACCAGGAATATTGTTTGACAAGAGAAGAGGCGGAGTCACCTAGTGCAG”, the binding signal is 18000 fluorescence intensity (a.u.).

As to “TTCTACCACTTCAACTCATGCCTGATGCCACCGTGTGTGCCGGAGTCACCTAGTGCAG”, the binding signal was 3800 fluorescence intensity (a.u.).

Regarding “AGGGCACTGTCATCGGGGTCAGGGTTAGGGTCACCGCCACCGGAGTCACCTAGTGCAG”, the binding signal is 3520 fluorescence intensity (a.u.).

As for “TGGGACTCACCCGCTGACTCAGCTAGTCAATCGTGGTCATCGGAGTCACCTAGTGCAG”, the binding signal was 15400 fluorescence intensity (a.u.).

As for “GATATGTGTGGGTGGGTTCCTGGATCCGGCGCAGAGGTGTCGGAGTCACCTAGTGCAG”, the binding signal was 4060 fluorescence intensity (a.u.).

With “ACTGTCGCACACATTGAGCAGTGTGACTCAGTGAGCCACCCGGAGTCACCTAGTGCAG”, the binding signal is 4010 fluorescence intensity (a.u.).

Consider “TGTTTGGCTCGGGTTCCAAGAAAGTCCAGCCTGCCATGATCGGAGTCACCTAGTGCAG”, for which the binding signal was 23300 fluorescence intensity (a.u.).

Turning to “GCCATTATGTAGCCACGTGTCATCCAAATTTGCAACTAGGCGGAGTCACCTAGTGCAG”, the binding signal was 16200 fluorescence intensity (a.u.).

As for “ATATCTACCTCATTGTTTGAGGCATGACCTGTAATTTGACCGGAGTCACCTAGTGCAG”, the binding signal was 3380 fluorescence intensity (a.u.).

For the sequence “CTATGACTTTAGTGGCTAGAGTCAGCCGGATCAACCTGTTCGGAGTCACCTAGTGCAG”, the binding signal is 24900 fluorescence intensity (a.u.).

Take “GCCCGCACCACCGCACGTGCACCCCTCAAACTCGCCATCGCGGAGTCACCTAGTGCAG”: the binding signal is 4230 fluorescence intensity (a.u.).

Take “CCAAGCTAATGCCACGTAAGCGCCACGTAGGATAAAGACTCGGAGTCACCTAGTGCAG”: the binding signal was 27900 fluorescence intensity (a.u.).

For “CGACTCACCTGCCGAGCCACGCGTCGCGCACGCTGCGGAGCGGAGTCACCTAGTGCAG”, the binding signal was 3170 fluorescence intensity (a.u.).

The record behind these values is PMC7819943, “Rice protein-binding microarrays: a tool to detect cis-acting elements near promoter regions in rice”.
